Test results taken from publication PMC5824958.
Results are given in words; binding and its absence hold for the method and conditions named. Binding seen in cells or lysates may run through a third protein. Here binding means that the protein was enriched with, or labelled near, the bait; the list need not be complete.

B1: Myelin-associated glycoprotein (protein, UniProt P07722 20-626)
chain: GHWGAWMPSSISAFEGTCVSIPCRFDFPDELRPAVVHGVWYFNSPYPKNYPPVVFKSRTQVVHESFQGRSRLLGDLGLRNCTLLLSTLSPELGGKYYFRGDLGGYNQYTFSEHSVLDIINTPNIVVPPEVVAGTEVEVSCMVPDNCPELRPELSWLGHEGLGEPTVLGRLREDEGTWVQVSLLHFVPTREANGHRLGCQAAFPNTTLQFEGYASLDVKYPPVIVEMNSSVEAIEGSHVSLLCGADSNPPPLLTWMRDGMVLREAVAESLYLDLEEVTPAEDGIYACLAENAYGQDNRTVELSVMYAPWKPTVNGTVVAVEGETVSILCSTQSNPDPILTIFKEKQILATVIYESQLQLELPAVTPEDDGEYWCVAENQYGQRATAFNLSVEFAPIILLESHCAAARDTVQCLCVVKSNPEPSVAFELPSRNVTVNETEREFVYSERSGLLLTSILTLRGQAQAPPRVICTSRNLYGTQSLELPFQGAHRLMWAKIGPVGAVVAFAILIAIVCYITQTRRKKNVTESPSFSAGDNPHVLYSPEFRISGAPDKYESEKRLGSERRLLGLRGEPPELDLSYSHSDLGKRPTKDSYTLTEELAEYAEIRVK
B2: Myelin-oligodendrocyte glycoprotein (protein, UniProt Q63345 28-245)
chain: GQFRVIGPGHPIRALVGDEAELPCRISPGKNATGMEVGWYRSPFSRVVHLYRNGKDQDAEQAPEYRGRTELLKESIGEGKVALRIQNVRFSDEGGYTCFFRDHSYQEEAAVELKVEDPFYWINPGVLALIALVPMLLLQVSVGLVFLFLQHRLRGKLRAEVENLHRTFDPHFLRVPCWKITLFVIVPVLGPLVALIICYNWLHRRLAGQFLEELRNPF
B3: Neurochondrin (protein, UniProt O35095 1-729)
chain: MSCCDLAAAGQLGKAGIMASDCEPALNQAESRNPTLERYLGALREAKNDSEQFAALLLVTKAVKAGDIDAKTRRRIFDAVGFTFPNRLLTTKEAPDGCPDHVLRALGVALLACFCSDPELASHPQVLNKIPILCTFLTARGDPDDAARRSMIDDTYQCLTAVAGTPRGPRHLIAGGTVSALCQAYLGHGYGFDQALALLVGLLAAAETQCWKEAEPDLLAVLRGLSEDFQRAEDASKFELCQLLPLFLPPTTVPPECHRDLQAGLARILGSKLSSWQRNPALKLAARLAHACGSDWIPVGSSGSKFLALLVNLACVEVRLALEETGTEVKEDVVTACYALMELGIQECTRCEQSLLKEPQKVQLVSIMKEAIGAVIHYLLRVGPEKQKEPFVFASVRILGAWLAEETSSLRKEVCQLLPFLVRYAKTLYEEAEEASDISQQVANLAISPTTPGPAWPGDALRLLLPGWCHLTVEDGPREILIKEGAPSLLCKYFLQQWELTSPGHDTSVLPDSVEIGLQTCCHIFLNLVVTAPGLIKRDACFTSLMNTLMTSLPSLVQQQGRLLLAANVATLGLLMARLLSTSPALQGTPASRGFFAAAILFLSQSHVARATPGSDQAVLALSPDYEGIWADLQELWFLGMQAFTGCVPLLPWLAPAALRSRWPQELLQLLGSVSPNSVKPEMVAAYQGVLVELARANRLCREAMRLQAGEETASHYRMAALEQCLSEP
B4: Neurofilament light polypeptide (protein, UniProt P19527 1-542)
chain: MSSFSYEPYFSTSYKRRYVETPRVHISSVRSGYSTARSAYSSYSAPVSSSLSVRRSYSSSSGSLMPSLENLDLSQVAAISNDLKSIRTQEKAQLQDLNDRFASFIERVHELEQQNKVLEAELLVLRQKHSEPSRFRALYEQEIRDLRLAAEDATNEKQALQGEREGLEETLRNLQARYEEEVLSREDAEGRLMEARKGADEAALARAELEKRIDSLMDEIAFLKKVHEEEIAELQAQIQYAQISVEMDVSSKPDLSAALKDIRAQYEKLAAKNMQNAEEWFKSRFTVLTESAAKNTDAVRAAKDEVSESRRLLKAKTLEIEACRGMNEALEKQLQELEDKQNADISAMQDTINKLENELRSTKSEMARYLKEYQDLLNVKMALDIEIAAYRKLLEGEETRLSFTSVGSITSGYSQSSQVFGRSAYSGLQSSSYLMSARAFPAYYTSHVQEEQSEVEETIEATKAEEAKDEPPSEGEAEEEEKEKEEGEEEEGAEEEEAAKDESEDAKEEEGGEGEEEDTKESEEEEKKEESAGEEQAAKKKD
B5: Neurofilament medium polypeptide (protein, UniProt P12839 1-846)
chain: MSYTLDSLGNPSAYRRVPTETRSSFSRVSGSPSSGFRSQSWSRGSPSTVSSSYKRSALAPRLAYSSAMLSSAESSLDFSQSSSLLNGGSGGDYKLSRSNEKEQLQGLNDRFAGYIEKVHYLEQQNKEIEAEIHALRQKQASHAQLGDAYDQEIRELRATLEMVNHEKAQVQLDSDHLEEDIHRLKERFEEEARLRDDTEAAIRAVRKDIEESSMVKVELDKKVQSLQDEVAFLRSNHEEEVADLLAQIQASHITVERKDYLKTDISTALKEIRSQLECHSDQNMHQAEEWFKCRYAKLTEAAEQNKEAIRSAKEEIAEYRRQLQSKSIELESVRGTKESLERQLSDIEERHNHDLSSYQDTIQQLENELRGTKWEMARHLREYQDLLNVKMALDIEIAAYRKLLEGEETRFSTFSGSITGPLYTHRQPSVTISSKIQKTKVEAPKLKVQHKFVEEIIEETKVEDEKSEMEDALTVIAEELAASAKEEKEEAEEKEEEPEVEKSPVKSPEAKEEEEGEKEEEEEGQEEEEEEDEGVKSDQAEEGGSEKEGSSEKDEGEQEEEGETEAEGEGEEAEAKEEKKTEGKVEEMAIKEEIKVEKPEKAKSPVPKSPVEEVKPKPEAKAGKDEQKEEEKVEEKKEVAKESPKEEKVEKKEEKPKDVPDKKKAESPVKEKAVEEMITITKSVKVSLEKDTKEEKPQQQEKVKEKAEEEGGSEEEVGDKSPQESKKEDIAINGEVEGKEEEEQETQEKGSGQEEEKGVVTNGLDVSPAEEKKGEDRSDDKVVVTKKVEKITSEGGDGATKYITKSVTVTQKVEEHEETFEEKLVSTKKVEKVTSHAIVKEVTQGD
B6: Neuromodulin (protein, UniProt P07936 1-226)
chain: MLCCMRRTKQVEKNDEDQKIEQDGVKPEDKAHKAATKIQASFRGHITRKKLKDEKKGDAPAAEAEAKEKDDAPVADGVEKKEGDGSATTDAAPATSPKAEEPSKAGDAPSEEKKGEGDAAPSEEKAGSAETESAAKATTDNSPSSKAEDGPAKEEPKQADVPAAVTDAAATTPAAEDAAKAAQPPTETAESSQAEEEKEAVDEAKPKESARQDEGKEDPEADQEHA
B7: Neuronal migration protein doublecortin (protein, UniProt Q9ESI7 1-365)
chain: MELDFGHFDERDKASRNMRGSRMNGLPSPTHSAHCSFYRTRTLQALSNEKKAKKVRFYRNGDRYFKGIVYAVSSDRFRSFDALLADLTRSLSDNINLLQGVRYIYTIDGSRKIGSMDELEEGESYVCSSDNFFKKVEYTKNVNPNWSVNVKTSANMKAPQSLASSNSAQARENKDFVRPKLVTIIRSGVKPRKAVRVLLNKKTAHSFEQVLTDITEAIKLETGVVKKLYTLDGKQVTCLHDFFGDDDVFIACGPEKFRYAQDDFSLDENECRVMKGNPSATAGPKASPTPQKTSAKSPGPMRRSKSPADSGNDQDANGTSSSQLSTPKSKQSPISTPTSPGSLRKHKDLYLPLSLDDSDSLGDSM
B8: Beta-adducin (protein, UniProt Q05764 1-725)
chain: MSEDTVPEAASPPPSQGQHYFDRFSEDDPEYLRLRNRAADLRQDFNLMEQKKRVTMILQSPSFREELEGLIQEQMKKGNNSSNIWALRQIADFMASTSHAVFPASSMNFSMMTPINDLHTADSLNLAKGERLMRCKISSVYRLLDLYGWAQLSDTYVTLRVSKEQDHFLISPKGVSCSEVTASSLIKVNILGEVVEKGSSCFPVDTTGFSLHSAIYAARPDVRCAIHLHTPATAAVSAMKCGLLPVSHNALLVGDMAYYDFNGEMEQEADRINLQKCLGPTCKILVLRNHGMVALGDTVEEAFYKVFHLQAACEVQVSALSSAGGTENLILLEQEKHRPHEVGSVQWAGSTFGPMQKSRLGEHEFEALMRMLDNLGYRTGYTYRHPFVQEKTKHKSEVEIPATVTAFVFEEDGVPVPALRQHAQKQQKEKTRWLNTPNTYLRVNVADEVQRNMGSPRPKTTWMKADEVEKSSSGMPIRIENPNQFVPLYTDPQEVLDMRNKIREQNRQDIKSAGPQSQLLASVIAEKSRSPSTESQLASKGDADTKDELEETVPNPFSQLTDQELEEYKKEVERKKLEQEQEGEKDAATEEPGSPVKSTPASPVQSPTRAGTKSPAVSPSKASEDAKKTEVSEANTEPEPEKPEGVVVNGKEEEPCVEEVLSKGPGQMTTNADTDGDSYKDKTESVTSGPLSPEGSPSKSPSKKKKKFRTPSFLKKSKKKEKVES
B9: Neurotrimin (protein, UniProt Q62718 33-321)
chain: SGDATFPKAMDNVTVRQGESATLRCTIDNRVTRVAWLNRSTILYAGNDKWCLDPRVVLLSNTQTQYSIEIQNVDVYDEGPYTCSVQTDNHPKTSRVHLIVQVSPKIVEISSDISINEGNNISLTCIATGRPEPTVTWRHISPKAVGFVSEDEYLEIQGITREQSGEYECSASNDVAAPVVRRVNVTVNYPPYISEAKGTGVPVGQKGTLQCEASAVPSAEFQWFKDDKRLVEGKKGVKVENRPFLSRLTFFNVSEHDYGNYTCVASNKLGHTNASIMLFGPGAVSEVNN
B10: Ras-related protein Rab-3A (protein, UniProt P63012 1-220)
chain: MASATDSRYGQKESSDQNFDYMFKILIIGNSSVGKTSFLFRYADDSFTPAFVSTVGIDFKVKTIYRNDKRIKLQIWDTAGQERYRTITTAYYRGAMGFILMYDITNEESFNAVQDWSTQIKTYSWDNAQVLLVGNKCDMEDERVVSSERGRQLADHLGFEFFEASAKDNINVKQTFERLVDVICEKMSESLDTADPAVTGAKQGPQLTDQQAPPHQDCAC
B11: Beta-soluble NSF attachment protein (protein, UniProt P85969 1-297)
chain: MDNAGKEREAVQLMAEAEKRVKASHSFLRGLFGGNTRIEEACEMYTRAANMFKMAKNWSAAGNAFCQAAKLHMQLQSKHDSATSFVDAGNAYKKADPQEAINCLNAAIDIYTDMGRFTIAAKHHITIAEIYETELVDIEKAIAHYEQSADYYKGEESNSANKCLLKVAAYAAQLEQYQKAIEIYEQVGANTMDNPLLKYSAKDYFFKAALCHFIVDELNAKLALEKYEEMFPAFTDSRECKLLKKLLEAHEEQNSEAYTEAVKEFDSISRLDQWLTTMLLRIKKSIQGDGEGDGDLK
B12: Ras-related protein Rab-3C (protein, UniProt P62824 1-227)
chain: MRHEAPMQMASAQDARFGQKDSSDQNFDYMFKLLIIGNSSVGKTSFLFRYADDSFTSAFVSTVGIDFKVKTVFKNEKRIKLQIWDTAGQERYRTITTAYYRGAMGFILMYDITNEESFNAVQDWSTQIKTYSWDNAQVILAGNKCDMEDERVVSTERGQRLGEQLGFEFFETSAKDNINVKQTFERLVDIICDKMSESLETDPAITAAKQSTRLKETPPPPQPNCGC

Target: T1, BRI2 (integral membrane protein 2B) (rat (endogenous in brain)) (UniProt Q5XIE8)
T1 sequence: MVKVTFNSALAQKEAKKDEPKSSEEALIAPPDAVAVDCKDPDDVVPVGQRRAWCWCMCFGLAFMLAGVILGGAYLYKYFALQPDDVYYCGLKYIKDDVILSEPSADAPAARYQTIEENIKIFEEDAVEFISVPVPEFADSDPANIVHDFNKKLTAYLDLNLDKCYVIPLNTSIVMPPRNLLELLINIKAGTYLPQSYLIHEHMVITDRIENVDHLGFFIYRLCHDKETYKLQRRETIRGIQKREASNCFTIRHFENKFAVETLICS
Experiment: affinity purification with mass spectrometry; mouse anti-BRI2 antibody (N-terminal region) on Dynabeads Protein G; pre-cleared rat cerebral cortex, hippocampus and cerebellum lysates (50 mM Tris-HCl pH 8.0, 120 mM NaCl, 4% CHAPS), overnight at 4 °C; co-precipitated proteins identified by nano-HPLC-MS/MS; hits absent from the two mock IPs or with a PSM ratio >= 2.0

Binder | binding
B1 | binds
B2 | binds
B3 | binds
B4 | binds
B5 | binds
B6 | binds
B7 | binds
B8 | binds
B9 | binds
B10 | binds
B11 | binds
B12 | binds
